For 26 molecules, survivor count and T/C results are on record in PubChem BioAssay AID248 (DTP/NCI, 2004).

The subject of this test is L1210 leukemia ip in BDF1 mice, survival T/C. Nature of the test: NCI In Vivo Anticancer Drug Screen. Data for tumor model L1210 Leukemia (intraperitoneal) in B6D2F1 (BDF1) mice. The following applies: T/C endpoint: mean survival time, higher T/C = longer survival.
Setting [1] is: dose: 400.0 mg/kg/injection, schedule: Q01DX009 (ip), vehicle: Klucel (hydroxypropylcellulose) (HPC).
Where [2] appears, read: dose: 400.0 mg/kg/injection, schedule: Q04DX002 (ip), vehicle: saline with Tween-80.
The mark [3] stands for this setting: dose: 150.0 mg/kg/injection, schedule: Q01DX001 (ip), vehicle: saline.
Where [4] appears, read: dose: 300.0 mg/kg/injection, schedule: Q01DX001 (ip), vehicle: saline.
Where [5] appears, read: dose: 400.0 mg/kg/injection, schedule: Q04DX003 (ip), vehicle: Klucel (hydroxypropylcellulose) (HPC).
Setting [6] is: dose: 100.0 mg/kg/injection, schedule: Q01DX009 (ip), vehicle: saline with Tween-80.
Setting [7] is: dose: 400.0 mg/kg/injection, schedule: Q01DX009 (ip), vehicle: saline with Tween-80.

The list does not hold the whole screen: it is rich in T/C values a quarter to a half above the control, in often repeated tests (any T/C) and in doses without a T/C. Further doses and runs are listed elsewhere. T/C gives the treated animals as a percentage of the vehicle group. Some doses have a count of surviving animals in place of a T/C: the source holds a T/C of zero for them, seemingly a mark for toxic or unscored doses. Some doses without a T/C left all or most animals alive at the check, yet need not have been tolerated: the source hardly ever lists a survival T/C far under the control, and the zero likely stands for such cases as well. Counts of survivors are from the toxicity check (mostly the fifth day) where no day follows; animals may have died later. Schedules are NCI's codes, taken here to give the interval after Q, in days (D) or hours (H), and the number of doses after X. Signs of the kind (2×) count equal records among those shown. Some entries were tested several times; the results are listed from low to high. Some schedule codes hold Z or #, which are not explained here. Some molecules as drawn cover several salts, stereoisomers or complexes of the source; a dose is that of the sample tested. Where survival is the endpoint, the PubChem record calls one and a half times the control and up active, and a quarter to a half above the control has no call in these data; cut-offs in other NCI protocols can differ. Some T/C values carry the count of animals alive at the toxicity check (mostly the fifth day); where none is given, no animal had died by that day.

In the case of `O=C(O)CC(SC(c1ccccc1)(c1ccccc1)c1ccccc1)C(=O)O` (configuration not stated), under setting [1], the survivor count is 0 of 6.

Regarding `NC(N)=NN=C1CCCCC1`, the survivor count reads like this: (dose: 240.0 mg/kg/injection, schedule: Q01DX Z (ip), vehicle: saline) 2 of 6; (dose: 480.0 mg/kg/injection, schedule: Q01DX Z (ip), vehicle: saline) 0 of 6.

As to `c1ccc(-c2c(-c3ccc4c(c3)OCO4)c(-c3ccc4c(c3)OCO4)c(-c3ccccc3)c3ccccc23)cc1`, the survivor count (dose: 400.0 mg/kg/injection, schedule: Q01DX001 (ip), vehicle: saline with Tween-80) is given as 3 of 3.

For the molecule `OCCN1CCN(CCCN2c3ccccc3CCc3ccccc32)CC1`, the survivor count runs as follows: (dose: 200.0 mg/kg/injection, schedule: Q04DX003 (ip), vehicle: saline) 3 of 6; (dose: 250.0 mg/kg/injection, schedule: Q04DX003 (ip), vehicle: saline) 0 of 6; (dose: 400.0 mg/kg/injection, schedule: Q04DX003 (ip), vehicle: saline) 1 of 6.

For the molecule `[NH-]C(CC(N)=O)C(=O)O.[NH-]C(CC(N)=O)C(=O)O.[Pd+2]` (configuration not stated), under setting [2], the survivor count is recorded as 1 of 3.

Turning to `Nc1nc(N)c2cc(CNc3ccc(C(=O)NC(CCCC(=O)O)C(=O)O)cc3)ccc2n1` (configuration not stated), the T/C (dose: 0.25 mg/kg/injection, schedule: Q01DX009 (ip), vehicle: saline) is 133 % of control; the T/C (dose: 1.0 mg/kg/injection, schedule: Q01DX009 (ip), vehicle: saline) is 128 % of control; the T/C (dose: 4.0 mg/kg/injection, schedule: Q04DX003 (ip), vehicle: saline) is 126 % of control [5 of 6 alive]; the T/C (dose: 8.0 mg/kg/injection, schedule: Q04DX003 (ip), vehicle: saline) was 140 % of control. Besides, the survivor count is, setting by setting: (dose: 0.5 mg/kg/injection, schedule: Q01DX009 (ip), vehicle: saline) 6 of 6; (dose: 2.0 mg/kg/injection, schedule: Q01DX009 (ip), vehicle: saline) 5 of 6; (dose: 4.0 mg/kg/injection, schedule: Q01DX009 (ip), vehicle: saline) 5 of 6; (dose: 8.0 mg/kg/injection, schedule: Q01DX009 (ip), vehicle: saline) 5 of 6; (dose: 16.0 mg/kg/injection, schedule: Q01DX009 (ip), vehicle: saline) 2 of 6; (dose: 32.0 mg/kg/injection, schedule: Q04DX003 (ip), vehicle: saline) 6 of 6. The survivor count (dose: 64.0 mg/kg/injection, schedule: Q04DX003 (ip), vehicle: saline) is on record as 5 of 6.

As for `NNc1nnc(-c2ccccc2)c2ccccc12`, the survivor count is 1 of 6 (dose: 75.0 mg/kg/injection, schedule: Q01DX001 (ip), vehicle: carboxymethylcellulose (CMC)); 0 of 6 (dose: 150.0 mg/kg/injection, schedule: Q01DX001 (ip), vehicle: carboxymethylcellulose (CMC)); 0 of 6 (dose: 300.0 mg/kg/injection, schedule: Q01DX001 (ip), vehicle: carboxymethylcellulose (CMC)).

With `COc1ccccc1C(C#N)NCCCNC(C#N)c1ccccc1OC` (configuration not stated), the survivor count is listed as 1 of 6 (dose: 40.0 mg/kg/injection, schedule: Q01DX001 (ip), vehicle: saline); 0 of 6 (dose: 75.0 mg/kg/injection, schedule: Q01DX001 (ip), vehicle: saline); 0 of 6 under setting [3]; 0 of 6 under setting [4].

Consider `O=C(Sc1ccccc1)C1OC1(c1ccccc1)c1ccccc1` (configuration not stated), for which the survivor count under setting [5] is given as 5 of 6.

In the case of `CNc1ccc(/C=C2\C=Cc3ccccc32)cc1`, the survivor count (dose: 400.0 mg/kg/injection, schedule: Q01DX Z (ip), vehicle: carboxymethylcellulose (CMC)) is reported as 3 of 6.

Turning to `COC(=O)c1ccccc1NC(=S)NC(=O)c1ccccc1F`, the survivor count under setting [6] was 6 of 6 (2×) and the survivor count under setting [7] is 6 of 6.

Consider `CSc1ccc(P(=NS(=O)(=O)c2ccc(C)cc2)(c2ccc(SC)cc2)c2ccc(SC)cc2)cc1`, for which the survivor count under setting [1] is 1 of 6.

Turning to `CCN(C(=O)c1cccc(C(=O)N(CC)c2ccccc2C)c1)c1ccccc1C`, the survivor count (dose: 400.0 mg/kg/injection, schedule: Q04DX003 (ip), vehicle: saline with Tween-80) was 5 of 6.

In the case of `COc1ccc(O)c(C2(O)OC(=O)c3c(OC)cccc32)c1` (configuration not stated), the survivor count (dose: 400.0 mg/kg/injection, schedule: Q01DX009 (ip), vehicle: carboxymethylcellulose (CMC)) was 3 of 3 and 6 of 6.

Turning to `CC(=O)OC1CC2(O)C(CCC3(C)C(c4ccc(=O)oc4)CCC32O)C2(C)C1=CC(O)C1OC12` (configuration not stated), the survivor count (dose: 4.0 mg/kg/injection, schedule: Q01DX001 (sc), vehicle: steroid suspending solution) is listed as 1 of 6.

With `O=[N+]([O-])c1cc(S(=O)(=O)OCC2CO2)ccc1Cl` (configuration not stated), the survivor count reads like this: (dose: 50.0 mg/kg/injection, schedule: Q01DX009 (ip), vehicle: Klucel (hydroxypropylcellulose) (HPC)) 2 of 6; (dose: 100.0 mg/kg/injection, schedule: Q01DX009 (ip), vehicle: Klucel (hydroxypropylcellulose) (HPC)) 0 of 6; (dose: 200.0 mg/kg/injection, schedule: Q01DX009 (ip), vehicle: Klucel (hydroxypropylcellulose) (HPC)) 0 of 6; under setting [1], 0 of 6.

With `Cc1ccc(Cl)cc1N=Cc1ccccc1O`, for the setting “dose: 200.0 mg/kg/injection, schedule: Q04DX003 (ip), vehicle: saline with Tween-80”, the T/C is 125 % of control.

As for `CCCCCCCCCCCC(=O)NC(=S)Nc1cc(Cl)ccc1C`, the survivor count (dose: 100.0 mg/kg/injection, schedule: Q04DX003 (ip), vehicle: Klucel (hydroxypropylcellulose) (HPC)) was 5 of 6; the survivor count (dose: 200.0 mg/kg/injection, schedule: Q04DX003 (ip), vehicle: Klucel (hydroxypropylcellulose) (HPC)) is recorded as 6 of 6; the survivor count under setting [5] was 5 of 6.

With `CC1=C(Cl)C(=O)C(Cl)=C(Cl)C1=O`, the survivor count under setting [3] is on record as 2 of 6 and the survivor count under setting [4] is 2 of 6.

With `CC(C)(C)C1CCC(N=C(N)CCl)CC1` (configuration not stated), the survivor count by setting is: (dose: 50.0 mg/kg/injection, schedule: Q04DX002 (ip), vehicle: Klucel (hydroxypropylcellulose) (HPC)) 1 of 3; (dose: 100.0 mg/kg/injection, schedule: Q04DX002 (ip), vehicle: Klucel (hydroxypropylcellulose) (HPC)) 2 of 3; (dose: 200.0 mg/kg/injection, schedule: Q04DX002 (ip), vehicle: Klucel (hydroxypropylcellulose) (HPC)) 0 of 3; (dose: 400.0 mg/kg/injection, schedule: Q04DX002 (ip), vehicle: Klucel (hydroxypropylcellulose) (HPC)) 0 of 3.

On to `CC12OC1C(=O)c1ccccc1C2=O` (configuration not stated), for which the survivor count (dose: 20.0 mg/kg/injection, schedule: Q04DX003 (ip), vehicle: Klucel (hydroxypropylcellulose) (HPC)) was 4 of 6.

For `Clc1ccccc1C(=Nc1ccccc1)C(=Nc1ccccc1)c1ccccc1Cl`, the survivor count (dose: 200.0 mg/kg/injection, schedule: Q01DX001 (ip), vehicle: Klucel (hydroxypropylcellulose) (HPC)) is reported as 6 of 6.

For the molecule `Nc1cccc(NC=O)c1`, under setting [6], the survivor count is recorded as 3 of 6.

For the molecule `[O-][n+]1c(Cl)cc(Cl)c2ccccc21`, the survivor count runs as follows: (dose: 200.0 mg/kg/injection, schedule: Q01DX009 (ip), vehicle: saline with Tween-80) 3 of 6; under setting [7], 0 of 6.

Regarding `Fc1c(F)c(-c2c(F)c(F)c(S)c(F)c2F)c(F)c(F)c1S`, the survivor count under setting [2] was 0 of 3.

Take `CC(N)CNc1ccccc1` (configuration not stated): the survivor count by setting is: (dose: 100.0 mg/kg/injection, schedule: Q04DX003 (ip), vehicle: water) 0 of 6; (dose: 200.0 mg/kg/injection, schedule: Q04DX003 (ip), vehicle: water) 0 of 6; (dose: 400.0 mg/kg/injection, schedule: Q04DX003 (ip), vehicle: water) 0 of 6.
